These are yes or no findings as the source states them, for the method shown. Some binding calls cover weakened binding; strength is not graded here.

Chains of the proteins cited; added tags and fusions are not shown. Lines headed by an entry give the natural chain unless they say otherwise; changes in a name come on top. Residues count along the entry.
UniProt Q03405: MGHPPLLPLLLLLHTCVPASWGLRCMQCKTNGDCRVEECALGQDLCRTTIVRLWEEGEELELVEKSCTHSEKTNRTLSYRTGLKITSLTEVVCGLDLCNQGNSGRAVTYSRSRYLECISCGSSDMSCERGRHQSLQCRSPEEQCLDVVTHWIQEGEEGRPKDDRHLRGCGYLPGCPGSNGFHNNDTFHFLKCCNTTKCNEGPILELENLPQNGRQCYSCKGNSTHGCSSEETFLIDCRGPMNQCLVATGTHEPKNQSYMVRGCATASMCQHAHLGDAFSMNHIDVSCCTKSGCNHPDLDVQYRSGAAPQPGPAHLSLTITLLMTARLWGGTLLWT
human urokinase-type plasminogen activator receptor (uPAR, CD87), cell-bound: residues 23-305 of Q03405
human uPAR expressed in HEK293T cells for Western blotting (FIG. 6, lane 5): residues 23-303 of Q03405
UniProt Q9GK78, residues 23-305: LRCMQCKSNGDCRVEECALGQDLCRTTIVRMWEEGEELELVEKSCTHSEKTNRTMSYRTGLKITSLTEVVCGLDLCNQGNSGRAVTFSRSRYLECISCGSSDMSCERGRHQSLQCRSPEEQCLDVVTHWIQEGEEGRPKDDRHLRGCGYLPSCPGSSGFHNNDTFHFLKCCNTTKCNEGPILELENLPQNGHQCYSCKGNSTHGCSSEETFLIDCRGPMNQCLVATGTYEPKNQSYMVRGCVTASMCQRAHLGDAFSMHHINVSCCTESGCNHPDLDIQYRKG

Test [1] addresses human uPAR expressed in HEK293T cells for Western blotting (FIG. 6, lane 5) (human) (UniProt Q03405). Kind of test: Western blot of HEK293T culture supernatants with His-tagged uPAR proteins, probed with the antibody. (In general: A western blot detects proteins with antibodies after separation by electrophoresis.)
Test [2] addresses cynomolgus monkey uPAR, cell-bound (cynomolgus monkey) (UniProt Q9GK78). Kind of test: FACS, CHOK1 cells expressing cyno uPAR, supernatant 1:2. (In flow cytometry, cells or beads pass a laser one at a time.)
For test [3] the target is unchanged. Kind of test: summary column Cyno X-reactivity.
The target is the same in test [4]. The test is described as follows: FACS, GeoMean; cynomolgus uPAR expressed on 293T cells; antibody concentration not given.
For test [5], the target named is human urokinase-type plasminogen activator receptor (uPAR, CD87), cell-bound (human) (UniProt Q03405). The test is described as follows: primary and secondary screening, FACS on cells expressing human uPAR, hybridoma supernatants.

B1: fully human monoclonal antibody 4.18.1 (ATCC Accession Number PTA-7476) (antibody, V domains shown)
VH: EVQLVESGGGLIQPGGSLRLSCAASGFTVRNNYMNWVRQAPGKGLEWVSVIYTGGSTYYADSVKGRFTISRDNSRNTLYLQMNSLRAEDTAVYYCAREGAVAGFDYWGQGTLVTVSL
VL: EIVMTQFPATLSMSPGERATLSCRASQSVSSSLAWYQQTPGQAPRLLIYGASTRSTGFPARFSGIGSGTEFTLTISSLQSEDFAVYYCQQYGNWPLTFGQGTRLEIK
Take B1: in test [1], the binding result was “binds”.

B2: fully human monoclonal antibody 2.6.1 (ATCC Accession Number PTA-7475) (antibody, V domains shown)
VH: EVQLVESGGGLIQPGGSLRLSCAASGFTVITNYMNWVRQAPGKGLEWVSIIYTGGSTSYADSVKGRFTVSRDNSKNTLYLHMNSLRVEDTAVYYCAREIAVAGYYGMDVWGQGTTVTVS
VL: DIQMTQSPSSLSASVGDRVTITCRASQGIRNDLGWYQQKPGKAPKRLIYAASSLQSGVPSRFSGSGSGTEFTLTISSLQPEDFATYYCLQHNSYPLTFGGGTRVEIK
Turning to B2, the binding result in test [1] is listed as “binds”.

B3: anti-uPAR monoclonal antibody 3.8.3 (antibody, V domains shown)
VH: EVQLVESGGGLVQPGGSLRLSCAASGFTFSSYWMSWVRQAPGKGLEWVANIKQHGSEKYYVDSVKGRFTISRDNAKNSLYLQMNSLRAEDTAVYYCAREEAYYYDNSGYYWYFDLWARGTLVTVSS
VL: DIQMTQSPSSVSASIGDRVTITCRASQGISSWLAWYQQKPGKTPKLLIYAASSLQSGVPSRFSGSGSGTDFTLTISSLQPEDFATYYCQQADSFPWTFGQGTKVEIK
Regarding B3, the binding result in test [2], in test [3], in test [4] and in test [5] was “binds” each time.

For the origin of these results see patent publication US20080152587A1.
